Assay results reported in patent publication US20210395651A1, “COMPOUNDS STABILIZING HYDROLASES IN LIQUIDS” (BASF SE, priority 2018, published 2021).

Assay: Textile cleaning tests (launder-O-meter) with fresh and 37° C. stored liquid laundry formulations
Conditions: for sum of ΔE of multi-stain monitor, T0: freshly prepared, wash 30° C., 60 minutes, 5 g/L; for sum of ΔE of multi-stain monitor, 1 week: stored 1 week at 37° C.; for sum of ΔE of multi-stain monitor, 2 weeks: stored 2 weeks at 37° C.; for sum of ΔE of multi-stain monitor, 4 weeks: stored 4 weeks at 37° C.; for sum of ΔE of multi-stain monitor, 6 weeks: stored 6 weeks at 37° C.; for sum of ΔE of multi-stain monitor, 8 weeks: stored 8 weeks at 37° C.
[1] = base formulation VII. (compound 2.5 wt%, no enzyme)
[2] = base formulation X. (Savinase 16.0L 0.7 wt%, Lipolase 0.2 wt%, compound 2.5 wt%)
[3] = base formulation VIII. (Lipolase 0.2 wt%, compound 2.5 wt%)

Row | Compound | sum of ΔE of multi-stain monitor, T0 [1] | sum of ΔE of multi-stain monitor, 1 week [1] | sum of ΔE of multi-stain monitor, 2 weeks [1] | sum of ΔE of multi-stain monitor, 4 weeks [1] | sum of ΔE of multi-stain monitor, 6 weeks [1] | sum of ΔE of multi-stain monitor, 8 weeks [1] | sum of ΔE of multi-stain monitor, T0 [2] | sum of ΔE of multi-stain monitor, 1 week [2] | sum of ΔE of multi-stain monitor, 2 weeks [2] | sum of ΔE of multi-stain monitor, 4 weeks [2] | sum of ΔE of multi-stain monitor, 6 weeks [2] | sum of ΔE of multi-stain monitor, 8 weeks [2] | sum of ΔE of multi-stain monitor, T0 [3] | sum of ΔE of multi-stain monitor, 1 week [3] | sum of ΔE of multi-stain monitor, 2 weeks [3] | sum of ΔE of multi-stain monitor, 4 weeks [3] | sum of ΔE of multi-stain monitor, 6 weeks [3]
1 | CCCOC(=O)CC(O)(CC(=O)OCCC)C(=O)OCCC [A.2, Tripropylcitrate] | 152 | 152 | 154 | 152 | 152 | 153 | 189 | 187 | 184 | 182 | 182 | 177 | – | – | – | – | –
2 | CCOC(=O)C(=O)OCC [B.3, diethyloxalate, reference compound] | – | – | – | – | – | – | 190 | 187 | 182 | 177 | 169 | 162 | – | – | – | – | –
3 | O=C(CC(O)(CC(=O)OCc1ccccc1)C(=O)OCc1ccccc1)OCc1ccccc1 [A.8, Tribenzylcitrate] | 153 | 153 | 152 | 152 | 152 | 151 | 191 | 189 | 185 | 186 | 182 | 176 | – | – | – | – | –
4 | CCOC(=O)CC(CC(=O)OCC)(OC(C)=O)C(=O)OCC [A.5, Acetyltriethylcitrate] | 154 | 155 | 153 | 153 | 152 | 153 | 190 | 187 | 187 | 183 | 180 | 180 | – | – | – | – | –
5 | Diethylcitrate [A.7] | – | – | – | – | – | – | – | – | – | – | – | – | 182 | 179 | 179 | 175 | 173
